# According to PubChem BioAssay AID2685 (National Center for Advancing Translational Sciences (NCATS), 2010):
# The list shows a part of the results. These are further read-outs of the screen, such as a control signal, another cell line or another target. No call is given for them. Compounds called inactive in the main read-out are mostly missing here. The note in brackets gives the kind of curve behind each potency; many fits are weak.
# Experiment: qHTS Assay for Lipid Storage Modulators in Drosophila S3 Cells;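 for cell number change: cells counted by Cell Tracker Red CMTPX staining in the red channel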
# Conditions: BODIPY lipid droplet fluorescence, 18-24 h; for cell number change: measured here: cell count max response, cells fed with added oleic acid
# Procedure, shortened: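 Laser-scanning cytometry quantifies lipid droplet accumulation (500–530 nm total intensity; droplet/cell object ratio) in oleic acid-fed (400 uM added) Drosophila S3 cells treated with a concentration series. 20 uM Triacsin C defined 100% inhibition.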
# [1] = measured here: cell number channel AC50, cells fed with added oleic acid
# [2] = measured here: lipid fluorescence (Fed channel) AC50, cells fed with added oleic acid
Compound,cell number change,AC50 [1],AC50 [2]
Cc1ccc(NC(=O)c2ccc(Cl)c(S(=O)(=O)NCC3CCCO3)c2)c(O)c1 (centres undefined),5.52%,,
CCOC(=O)c1c(C)[nH]c(C)c1C(=O)COC(=O)CNC(=O)C1CCCCC1,,"1.64 µM [rising, partial curve]","0.731 µM [rising, partial curve, poor fit]"
COc1ccc(C2CC(c3ccc([N+](=O)[O-])cc3)=NN2C(=O)c2ccccc2)cc1OC (centres undefined),0.184%,"3.26 µM [falling, single point]","2.59 µM [falling, full curve]"
COCC(=O)Nc1ccccc1C(=O)Nc1ccc(OC)cc1,0.0707%,,
CC(Nc1c([N+](=O)[O-])c(=O)oc2ccccc12)c1ccccc1 (centres undefined),46.5%,"7.31 µM [rising, partial curve]","10.3 µM [rising, partial curve]"
Cc1ccc(CNC(=O)CCS(=O)(=O)c2cccc3nsnc23)cc1,6.22%,,
CCOC(=O)c1cnc2ccccc2c1Nc1ccc(C(=O)O)cc1,-31.6%,"7.31 µM [falling, partial curve]","4.11 µM [falling, partial curve]"
Cc1ccc(S(=O)(=O)N2CCN(C(=O)n3ccnc3)CC2)cc1,-11.2%,,
Nc1cc(-c2ccccc2)ccc1O,,,"5.17 µM [falling, single point]"
Cc1nnc2ccc(-c3cccc(NC(=O)c4ccc(Br)o4)c3)nn12,-16.3%,,"1.3 µM [falling, full curve, poor fit]"
COc1ccccc1C(=O)NCC(=O)Nc1ccccc1,14.5%,,"16.4 µM [rising, partial curve]"
Cc1noc(C)c1COC(=O)COc1ccc(C#N)cc1,-12.8%,,
COc1ccc(Cl)cc1NC(=O)NCc1ccco1,14%,,"0.00411 µM [rising, full curve, poor fit]"
CCNC(=S)Nc1cc(Cl)ccc1Oc1ccccc1,44.3%,"11.6 µM [rising, partial curve]","3.26 µM [rising, partial curve, poor fit]"
CCCCCC(O)c1cccc(OCc2ccc3ccccc3n2)c1 (centres undefined),-1.46%,,"1.03 µM [rising, full curve]"
N[C@@H](Cc1ccccc1)C(=O)N1CCC(C(=O)N[C@@H](CCC(=O)O)C(=O)O)CC1,32.6%,"3.66 µM [rising, full curve]","29.1 µM [rising, partial curve, poor fit]"
Oc1cccc(C=NCc2ccccc2)c1O,-16.2%,,"3.26 µM [falling, partial curve]"
CCNS(=O)(=O)c1ccc(C(=O)OCC(=O)N2CCCc3ccccc32)cc1,-18.7%,,"0.731 µM [rising, partial curve, poor fit]"
CCOc1ccc(C(=O)CCC(=O)NCC(=O)Nc2c(C)cccc2C)cc1,18.6%,,"0.82 µM [rising, single point]"
Cc1ccc(COC(=O)CN2C(=O)NC3(CCCC3)C2=O)cc1,5.91%,,"11.6 µM [rising, partial curve]"
O=C1COc2ccc(C(=O)COC(=O)CNC(=O)c3ccco3)cc2N1,-49%,"0.92 µM [falling, full curve]","0.0058 µM [falling, full curve]"

Compound,cell number change,AC50 [1],AC50 [2]
C[C@H](NC(=O)c1ccc2c(c1)OCO2)c1nnc2ccccn12,12.6%,,
CCCn1c(N)c(N(CCOC)C(=O)c2cc(-c3ccco3)nc3ccccc23)c(=O)[nH]c1=O,-4.4%,,"0.164 µM [rising, full curve, poor fit]"
CC(=O)N1C(=O)NC(c2ccccc2)=C([N+](=O)[O-])C1c1ccccc1 (centres undefined),-40.7%,"14.6 µM [falling, partial curve, poor fit]",
C=CCn1nnc2sc3c(c2c1=O)CCC(C)C3 (centres undefined),-7.82%,,"0.326 µM [rising, full curve, poor fit]"
COc1cc2ccccc2cc1C(=O)Nc1ccccc1N1CCN(S(C)(=O)=O)CC1,6.18%,"0.411 µM [rising, full curve, poor fit]","1.64 µM [rising, partial curve]"
O=C(Nc1ccc(SC(F)F)cc1)c1cccc2nc3ccccc3nc12,-21.5%,,
Cc1ccccc1NC(=O)c1ccc(OCC(=O)Nc2ccccc2F)cc1,5.51%,"6.51 µM [falling, single point]","6.51 µM [falling, single point]"
COc1ccc(Nc2ccc(C(F)(F)F)cc2[N+](=O)[O-])cn1,11.7%,,
CN(CC(=O)Nc1ccccc1Cl)CC(=O)Nc1ccccc1[N+](=O)[O-],50.7%,"0.82 µM [rising, full curve, poor fit]","18.4 µM [rising, partial curve]"
O=S(=O)(c1ccc(Cl)cc1)N1CCN(Cc2ccncc2)CC1,-10.9%,,"6.51 µM [falling, single point]"
O=c1c([N+](=O)[O-])c(N2CCOCC2)c2ccccc2n1Cc1ccccc1,-2.68%,,"3.26 µM [falling, single point]"
CNC(=O)N1c2ccccc2NC(=O)CC1C (centres undefined),-9.06%,,"0.651 µM [falling, single point]"
N#CCCN1CCNCC1,3.06%,,"25.9 µM [falling, partial curve]"
O=C(CN1CCN(c2ccc(F)cc2)CC1)NCC1CCCO1 (centres undefined),0.408%,,"25.9 µM [falling, single point]"
O=C(CCCc1ccccc1)Nc1ccccc1C(F)(F)F,-1.82%,,"0.13 µM [rising, full curve, poor fit]"
O=C(O)c1cccc(N2C(=O)c3cccnc3C2=O)c1,-3.86%,,
O=C(CC1C(=O)NCCN1C(=O)Nc1ccccc1)Nc1cccc(C(F)(F)F)c1 (centres undefined),-29.6%,,
CCN(c1ccc(NC(=O)CCc2nc3sc4c(c3c(=O)[nH]2)CCCC4)cc1)C(C)C,-12%,"0.366 µM [falling, partial curve, poor fit]",
COc1ccccc1-n1cnc2cc(NCc3ccccc3O)ccc21,27.1%,"2.91 µM [rising, partial curve]","4.11 µM [rising, full curve]"
CCOc1cc(C(=S)N2CCOCC2)ccc1OS(=O)(=O)c1ccccc1[N+](=O)[O-],-21.4%,,
CN(C)CC1CCCCC1OC(=O)/C=C/c1ccc(Cl)cc1Cl (centres undefined),10.8%,,

Compound,cell number change,AC50 [1],AC50 [2]
c1ccc2c3c([nH]c2c1)C(C1CCCCC1)N(Cc1ncc[nH]1)CC3 (centres undefined),-19.2%,,"5.17 µM [falling, partial curve]"
COC(=O)Cc1ccc(OC(=O)CCS(=O)(=O)c2ccc(C)cc2)cc1,-40.4%,"2.06 µM [falling, full curve]","29.1 µM [falling, single point]"
COc1ccc(OC)c(CCNC(=O)CCc2cn(C)c3ccccc23)c1,,,"6.51 µM [rising, single point]"
COc1ccc(Cn2c(=O)oc3ccccc32)cc1F,30.3%,"29.1 µM [rising, single point]",
O=C(CCc1ccccn1)N1CCCC(N2CCN(c3cccc(C(F)(F)F)c3)CC2)C1 (centres undefined),-15.8%,,"29.1 µM [rising, single point]"
Cc1ccc(-n2c(-c3nn(C)cc3Cl)n[nH]c2=S)cc1,-9.37%,,"2.31 µM [rising, partial curve, poor fit]"
CC(=O)c1ccc(NC(=O)CCc2nnc3ccc(N4CCCC4)nn23)cc1,0.85%,,"29.1 µM [rising, single point]"
CC(CCc1ccccc1)NS(=O)(=O)c1ccccc1F (centres undefined),2.08%,,"7.31 µM [falling, partial curve]"
COC(CN(C)C(=O)c1ccc(CS(=O)(=O)c2ccccc2C)o1)OC,14.4%,,"29.1 µM [falling, single point]"
Cc1cc(C)c(NC(=O)CSc2nc3ccccc3c(=O)n2CCCN2CCOCC2)c(C)c1,3.03%,,"20.6 µM [rising, partial curve]"
COc1ccc(/C=c2\s/c(=C/C(=O)c3ccc(C)cc3)[nH]c2=O)c(OC)c1,12.4%,,"16.4 µM [falling, single point]"
COc1cc(C(=O)Nc2ccc(S(=O)(=O)Nc3onc(C)c3C)cc2)cc(OC)c1OC,-36.1%,"29.1 µM [falling, single point]",
CC(=O)Cn1ncc(N(C)Cc2ccccc2)c(Cl)c1=O,18.4%,,
Cc1ccccc1NC(=O)CSc1nc(N)c2c3c(sc2n1)CSC(C)(C)C3,-16.5%,,
Cn1nc(Oc2ncc(C(F)(F)F)cc2Cl)cc1C(F)(F)F,-41.9%,"9.2 µM [falling, partial curve, poor fit]","0.58 µM [falling, full curve]"
Clc1ccc(-n2cc(-c3ccc(Br)cc3)[n+]3c2CCCCC3)cc1,-4.91%,"0.164 µM [rising, full curve, poor fit]",
Cc1cc(=O)[nH]c2c3ccccc3nn12,-45.2%,"16.4 µM [falling, partial curve]",
CCCOc1cccc(/C=N/NC(=O)c2csc(C)c2C)c1,3.83%,,"29.1 µM [rising, single point]"
Cc1c(C2(O)CCCCC2)[nH]c2cnccc12,-21.2%,,"1.84 µM [rising, partial curve, poor fit]"
O=C(Nc1ccncc1)c1cccc(S(=O)(=O)N2CCc3ccccc32)c1,,"6.51 µM [rising, partial curve, poor fit]",

# Gathered by group, those above with a CF3 group (5)
Compound,cell number change,AC50 [1],AC50 [2]
COc1ccc(Nc2ccc(C(F)(F)F)cc2[N+](=O)[O-])cn1,11.7%,,
O=C(CCCc1ccccc1)Nc1ccccc1C(F)(F)F,-1.82%,,"0.13 µM [rising, full curve, poor fit]"
O=C(CC1C(=O)NCCN1C(=O)Nc1ccccc1)Nc1cccc(C(F)(F)F)c1 (centres undefined),-29.6%,,
O=C(CCc1ccccn1)N1CCCC(N2CCN(c3cccc(C(F)(F)F)c3)CC2)C1 (centres undefined),-15.8%,,"29.1 µM [rising, single point]"
Cn1nc(Oc2ncc(C(F)(F)F)cc2Cl)cc1C(F)(F)F,-41.9%,"9.2 µM [falling, partial curve, poor fit]","0.58 µM [falling, full curve]"
